PubChem BioAssay AID1224830, NIAID | 2016

- Test: 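Genes whose knock-down alters the TNF-alpha reporter response to LPS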 (primary screen)
- System: human THP-1 monocytic leukaemia cells, TNF dual-luciferase reporter clone, PMA-differentiated to macrophage-like cells
- Reagents: siRNA pool against human genes, 50 nM
- Time to read-out: LPS for 4 h, given about 3 days after siRNA transfection
- Challenge: bacterial LPS (TLR4 ligand), 10 ng/ml
- Measured: 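Ratio of firefly to renilla light, scaled to the plate median and expressed as a robust z-score per replicate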
- Reading the numbers: TNF reporter robust z-score: higher = stronger TNF reporter response to LPS
- Rule for the call: 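a well is active when its z-score exceeds 2.8 or falls below -1.5; control wells carry no call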
In all, the deposit lists about 18,000 reagents; below is an unselected part. About 2,900 of all reagents (16%) count as active. 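Calls are made per well; low scores hint the gene aids the LPS response, high scores that it dampens it.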 Entries without a mark were called inactive. Repeated entries: four replicate wells of each siRNA pool.

gene symbol	TNF reporter robust z-score
PYCR3 (pyrroline-5-carboxylate reductase 3)	-1.4
PYCR3 (pyrroline-5-carboxylate reductase 3)	-1.71 (active)
PYCR3 (pyrroline-5-carboxylate reductase 3)	-1.3
PYCR3 (pyrroline-5-carboxylate reductase 3)	-1.26
XAGE1B (X antigen family member 1B)	-0.2
XAGE1B (X antigen family member 1B)	0.68
XAGE1B (X antigen family member 1B)	-0.46
XAGE1B (X antigen family member 1B)	1.48
KIFC3 (kinesin family member C3)	-0.11
KIFC3 (kinesin family member C3)	0.73
KIFC3 (kinesin family member C3)	1.12
KIFC3 (kinesin family member C3)	1.03
NFATC1 (nuclear factor of activated T cells 1)	2.5
NFATC1 (nuclear factor of activated T cells 1)	0.8
NFATC1 (nuclear factor of activated T cells 1)	1.14
NFATC1 (nuclear factor of activated T cells 1)	1.88
UBD (ubiquitin like modifier D)	0.57
UBD (ubiquitin like modifier D)	1.69
UBD (ubiquitin like modifier D)	0.63
UBD (ubiquitin like modifier D)	1.03
WDR93 (WD repeat domain 93)	0.45
WDR93 (WD repeat domain 93)	-0.47
WDR93 (WD repeat domain 93)	0.87
WDR93 (WD repeat domain 93)	0.89
NME1-NME2 (NME1-NME2 readthrough)	-0.81
NME1-NME2 (NME1-NME2 readthrough)	-0.72
NME1-NME2 (NME1-NME2 readthrough)	-0.4
NME1-NME2 (NME1-NME2 readthrough)	1.03
MSRB2 (methionine sulfoxide reductase B2)	-1.14
MSRB2 (methionine sulfoxide reductase B2)	-0.89
MSRB2 (methionine sulfoxide reductase B2)	-0.62
MSRB2 (methionine sulfoxide reductase B2)	0.04
DCAF1 (DDB1 and CUL4 associated factor 1)	1.37
DCAF1 (DDB1 and CUL4 associated factor 1)	0.97
DCAF1 (DDB1 and CUL4 associated factor 1)	6.18 (active)
DCAF1 (DDB1 and CUL4 associated factor 1)	4.14 (active)
NAA11 (N-alpha-acetyltransferase 11, NatA catalytic subunit)	-0.99
NAA11 (N-alpha-acetyltransferase 11, NatA catalytic subunit)	-0.21
NAA11 (N-alpha-acetyltransferase 11, NatA catalytic subunit)	-0.8
NAA11 (N-alpha-acetyltransferase 11, NatA catalytic subunit)	-1.02
DDX50 (DExD-box helicase 50)	0.8
DDX50 (DExD-box helicase 50)	0.61
DDX50 (DExD-box helicase 50)	0
DDX50 (DExD-box helicase 50)	0.38
HMBOX1 (homeobox containing 1)	0.69
HMBOX1 (homeobox containing 1)	0.02
HMBOX1 (homeobox containing 1)	-0.21
HMBOX1 (homeobox containing 1)	0.7
ARPP19 (cAMP regulated phosphoprotein 19)	-0.24
ARPP19 (cAMP regulated phosphoprotein 19)	1.09
ARPP19 (cAMP regulated phosphoprotein 19)	0.1
ARPP19 (cAMP regulated phosphoprotein 19)	-0.01
ATP11AUN (ATP11A upstream neighbor lncRNA)	0.82
ATP11AUN (ATP11A upstream neighbor lncRNA)	0.22
ATP11AUN (ATP11A upstream neighbor lncRNA)	0.6
ATP11AUN (ATP11A upstream neighbor lncRNA)	0.19
OR2G2 (olfactory receptor family 2 subfamily G member 2)	0.09
OR2G2 (olfactory receptor family 2 subfamily G member 2)	2.46
OR2G2 (olfactory receptor family 2 subfamily G member 2)	0.07
OR2G2 (olfactory receptor family 2 subfamily G member 2)	1.75
CASP9 (caspase 9)	2.21
CASP9 (caspase 9)	0.22
CASP9 (caspase 9)	1.63
CASP9 (caspase 9)	3.56 (active)
TRIM24 (tripartite motif containing 24)	0.97
TRIM24 (tripartite motif containing 24)	-0.29
TRIM24 (tripartite motif containing 24)	3.83 (active)
TRIM24 (tripartite motif containing 24)	0.72
PLCG1 (phospholipase C gamma 1)	-1
PLCG1 (phospholipase C gamma 1)	-0.34
PLCG1 (phospholipase C gamma 1)	-0.66
PLCG1 (phospholipase C gamma 1)	-0.45
KIF2B (kinesin family member 2B)	-0.56
KIF2B (kinesin family member 2B)	0.04
KIF2B (kinesin family member 2B)	0.77
KIF2B (kinesin family member 2B)	1.02
